Results deposited as PubChem BioAssay AID652243 (Drosophila RNAi Screening Center, 2013).
Assay: 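Knock-downs that decrease or increase androgen receptor reporter signal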 (primary screen). Cells: Drosophila S2R+ cells. Reagents: long dsRNA against Drosophila genes. Timing: 72 h (48 h, then 24 h hormone). Challenge: synthetic androgen R1881 at 10 nM for 24 h. Detection: 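Per-well raw luminescence of the androgen-driven firefly reporter and of the Renilla control, two replicates each, without normalisation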. Scale: firefly reporter light: higher = more light from androgen-responsive reporter; Renilla control light: higher = more constitutive control signal (cell number, transfection). Call rule: 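Hit when the log firefly-to-Renilla ratio dropped or increased by a fixed fold versus the mean of GFP or LacZ controls across duplicate plates; lowering cut given as 1.5 and as 3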. Calls: active = hit: reporter lowered or raised; inactive = no hit.
The deposit covers about 24,000 reagents; shown is an unselected part of those with a known target gene and a result. In the full data, 246 (1%) were called active. 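Plates not normalised; calls are printed but the firefly/Renilla ratio behind them is not deposited; fold cut for lowering reported inconsistently.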 Raw values are not corrected between plates. Reagents against one gene are numbered here. The record does not give: the amount of reagent.

CaMKI #1 → firefly reporter light, replicate 1: 1.11e5; firefly reporter light, replicate 2: 1.44e5; Renilla control light, replicate 1: 1.25e6; Renilla control light, replicate 2: 8.87e5; call: inactive
CaMKI #2 → call: inactive
CaMKI #3 → call: inactive
CG13748 → firefly reporter light, replicate 1: 2.01e5; firefly reporter light, replicate 2: 1.35e5; Renilla control light, replicate 1: 1.24e6; Renilla control light, replicate 2: 6.08e5; call: inactive
CG14710 → firefly reporter light, replicate 1: 33975; firefly reporter light, replicate 2: 58056; Renilla control light, replicate 1: 2.83e5; Renilla control light, replicate 2: 4.93e5; call: inactive
CG3769 → firefly reporter light, replicate 1: 70110; firefly reporter light, replicate 2: 97851; Renilla control light, replicate 1: 1.16e6; Renilla control light, replicate 2: 1.03e6; call: inactive
hwt #1 → firefly reporter light, replicate 1: 2.06e5; firefly reporter light, replicate 2: 2.93e5; Renilla control light, replicate 1: 2.04e6; Renilla control light, replicate 2: 3.11e6; call: inactive
hwt #2 → firefly reporter light, replicate 1: 6.66e5; firefly reporter light, replicate 2: 6.15e5; Renilla control light, replicate 1: 3.83e6; Renilla control light, replicate 2: 3.52e6; call: inactive
hwt #3 → firefly reporter light, replicate 1: 1.06e6; firefly reporter light, replicate 2: 1.19e6; Renilla control light, replicate 1: 1.10e6; Renilla control light, replicate 2: 1.57e6; call: inactive
hwt #4 → firefly reporter light, replicate 1: 7.12e5; firefly reporter light, replicate 2: 9.05e5; Renilla control light, replicate 1: 1.14e6; Renilla control light, replicate 2: 1.15e6; call: inactive
hwt #5 → firefly reporter light, replicate 1: 4.09e5; firefly reporter light, replicate 2: 5.95e5; Renilla control light, replicate 1: 1.48e6; Renilla control light, replicate 2: 1.48e6; call: inactive
cyp33 → firefly reporter light, replicate 1: 1.44e6; firefly reporter light, replicate 2: 1.58e6; Renilla control light, replicate 1: 2.76e6; Renilla control light, replicate 2: 3.23e6; call: inactive
CG4186 → firefly reporter light, replicate 1: 2.78e5; firefly reporter light, replicate 2: 2.39e5; Renilla control light, replicate 1: 2.17e6; Renilla control light, replicate 2: 2.11e6; call: inactive
VGlut #1 → firefly reporter light, replicate 1: 4.08e5; firefly reporter light, replicate 2: 3.70e5; Renilla control light, replicate 1: 2.30e6; Renilla control light, replicate 2: 1.40e6; call: inactive
VGlut #2 → firefly reporter light, replicate 1: 6.24e5; firefly reporter light, replicate 2: 5.45e5; Renilla control light, replicate 1: 3.34e6; Renilla control light, replicate 2: 2.91e6; call: inactive
ASPP → firefly reporter light, replicate 1: 9.36e5; firefly reporter light, replicate 2: 1.06e6; Renilla control light, replicate 1: 1.46e6; Renilla control light, replicate 2: 2.07e6; call: inactive
HmgD #1 → firefly reporter light, replicate 1: 9.45e5; firefly reporter light, replicate 2: 1.02e6; Renilla control light, replicate 1: 2.85e6; Renilla control light, replicate 2: 2.65e6; call: inactive
HmgD #2 → firefly reporter light, replicate 1: 4.21e5; firefly reporter light, replicate 2: 3.64e5; Renilla control light, replicate 1: 5.21e5; Renilla control light, replicate 2: 5.65e5; call: inactive
c-cup → firefly reporter light, replicate 1: 87837; firefly reporter light, replicate 2: 94462; Renilla control light, replicate 1: 7.43e5; Renilla control light, replicate 2: 8.73e5; call: inactive
trol #1 → firefly reporter light, replicate 1: 3.53e5; firefly reporter light, replicate 2: 4.13e5; Renilla control light, replicate 1: 4.17e6; Renilla control light, replicate 2: 3.65e6; call: inactive
trol #2 → firefly reporter light, replicate 1: 3.18e5; firefly reporter light, replicate 2: 2.51e5; Renilla control light, replicate 1: 3.71e6; Renilla control light, replicate 2: 2.19e6; call: inactive
trol #3 → firefly reporter light, replicate 1: 4.65e5; firefly reporter light, replicate 2: 4.66e5; Renilla control light, replicate 1: 1.16e6; Renilla control light, replicate 2: 1.26e6; call: inactive

3 entries already listed, sorted by “firefly reporter light, replicate 2”, lowest first.
CG14710 → firefly reporter light, replicate 1: 33975; firefly reporter light, replicate 2: 58056; Renilla control light, replicate 1: 2.83e5; Renilla control light, replicate 2: 4.93e5; call: inactive
CG3769 → firefly reporter light, replicate 1: 70110; firefly reporter light, replicate 2: 97851; Renilla control light, replicate 1: 1.16e6; Renilla control light, replicate 2: 1.03e6; call: inactive
CG13748 → firefly reporter light, replicate 1: 2.01e5; firefly reporter light, replicate 2: 1.35e5; Renilla control light, replicate 1: 1.24e6; Renilla control light, replicate 2: 6.08e5; call: inactive
